These are yes or no findings as the source states them, for the method shown. For some assays here: In cells and extracts the contact can be indirect. Some results given as binding are weak or reduced against the parent protein; the word gives no strength. Tags and fused reporters may be left off the sequences shown.
T1: Vap27-1, bait fusion from pBT3-STE-Vap27-1 (Arabidopsis thaliana) (UniProt Q8VZ95)
T1 sequence: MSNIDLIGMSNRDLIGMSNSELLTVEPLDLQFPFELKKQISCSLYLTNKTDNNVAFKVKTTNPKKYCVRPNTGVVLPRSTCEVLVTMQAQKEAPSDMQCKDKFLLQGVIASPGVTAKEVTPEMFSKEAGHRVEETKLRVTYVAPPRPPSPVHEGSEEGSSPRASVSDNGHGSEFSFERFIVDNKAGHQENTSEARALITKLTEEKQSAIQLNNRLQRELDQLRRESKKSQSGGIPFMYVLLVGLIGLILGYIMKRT

T2: Syp71-HA (Arabidopsis thaliana) (UniProt Q9SF29)
T2 sequence: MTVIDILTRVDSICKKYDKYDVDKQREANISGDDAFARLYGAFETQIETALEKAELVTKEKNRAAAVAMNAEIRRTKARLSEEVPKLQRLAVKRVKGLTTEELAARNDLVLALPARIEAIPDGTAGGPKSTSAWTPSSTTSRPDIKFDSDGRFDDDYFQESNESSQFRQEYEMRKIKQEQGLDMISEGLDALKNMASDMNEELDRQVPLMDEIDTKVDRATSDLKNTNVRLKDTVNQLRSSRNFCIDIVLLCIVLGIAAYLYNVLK

B1: Syp71, prey fusion from pPR3-N-Syp71 (protein, UniProt Q9SF29 1-266)
chain: T2 sequence
B2: Vap27-1-His (protein, UniProt Q8VZ95 1-256)
chain: T1 sequence

Columns and labels:
[1] = biological target: T1, Vap27-1, bait fusion from pBT3-STE-Vap27-1 (Arabidopsis thaliana); assay: two-hybrid; DUAL membrane system (a variant of the yeast two-hybrid assay for membrane proteins); bait in pBT3-STE, prey in pPR3-N; yeast NMY51; growth on SD/-Leu/-Trp/-His/-Ade at 30°C for 2 days
[2] = biological target: T2, Syp71-HA (Arabidopsis thaliana); assay: co-IP; two tagged proteins transiently coexpressed in N. benthamiana leaves for 48 h; cleared lysate in 50 mM Tris pH 7.5, 150 mM NaCl, 10% glycerol, 0.1% Nonidet P-40, 5 mM DTT; immunoprecipitated with HA antibodies and protein G Sepharose at 4°C; detected by His antibodies

Binder	binding [1]	binding [2]
B1	binds	–
B2	–	binds

Source: PMC3656112
